The results in this text go back to PubChem BioAssay AID662 (National Center for Advancing Translational Sciences (NCATS), 2007).

The other results are listed elsewhere or left out. The main result of the screen is listed elsewhere. These columns were measured beside it and carry no call. The list favours compounds with an active or inconclusive main result. The note in brackets gives the kind of curve behind each potency; many fits are weak.

The assay can be described thus: Cell signaling CRE-BLA (Fsk stim). The note with it: CHO CRE-bla reporter (cAMP response element driving beta-lactamase), forskolin EC10, beta-lactamase ratio; measured here: 460 nm blue channel. In short, it runs like this:
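CRE-bla CHO cells stimulated with EC10 NKH 477 (water-soluble forskolin) and compound titrations, 3 h at 37C; beta-lactamase read with CCF4 after 2 h at room temperature. Activity from 460/530 nm emission ratio, AC50 values for positive or negative modulation.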
Regarding `O=C(NCCc1ccccc1)C1CCN(S(=O)(=O)c2cccs2)CC1`, the AC50 is 5.01 µM [falling, single point].

On to `O=C(Nc1ccc(F)cc1)N(CCCN1CCOCC1)Cc1cc2cc3c(cc2[nH]c1=O)OCO3`, for which the AC50 was 12.6 µM [rising, partial curve].

Turning to `Cn1c(C(=O)NCc2ccccn2)cc2c(=O)n3ccccc3nc21`, the AC50 was 10 µM [rising, partial curve].

Turning to `Cn1c(=O)[nH]c(=O)c2c1nc(NCc1ccccc1)n2CCCc1ccccc1`, the AC50 was 3.98 µM [rising, partial curve, poor fit].

Regarding `O=c1cc(N2CCc3ccccc3C2)[nH]c(=O)n1Cc1ccc(F)cc1`, the AC50 is 1.26 µM [rising, full curve, poor fit].

Turning to `CCOc1ccccc1CNC(=O)C1CCCN(c2nc3ccccc3o2)C1` (configuration not stated), the AC50 is 12.6 µM [rising, single point].

Turning to `FC(F)(F)c1ccccc1-c1ccc2ncnc(NC3CCNCC3)c2c1`, the AC50 was 10 µM [rising, partial curve].

With `COc1ccc(N2CCN(c3nc(NCCc4ccc(OC)c(OC)c4)nc(OC)n3)CC2)cc1`, the AC50 is 3.16 µM [rising, full curve].

As to `Cc1ccc(CNC(=O)CCS(=O)(=O)c2cccc3nonc23)cc1`, the AC50 was 25.1 µM [falling, single point].

Turning to `N#CCSc1nc(Nc2ccc3c(c2)OCO3)c2ccccc2n1`, the AC50 is 1.58 µM [rising, partial curve].

In the case of `O=c1c(-c2cccs2)nc2cnc(Oc3cccc(Cl)c3)nc2n1C[C@H]1CCCO1`, the AC50 was 6.31 µM [rising, partial curve].

Turning to `O=c1oc2c(CN3CCOCC3)c(O)ccc2c2c1CCC2`, the AC50 was 12.6 µM [rising, single point].

For the molecule `Cc1c(C(=O)OCC(C)C)[nH]c2c1C(=O)CC(c1ccco1)C2` (configuration not stated), the AC50 was 2 µM [rising, full curve].

For `COc1ccc(-c2nc3cnc(OCc4ccccc4)nc3n(CCC#N)c2=O)cc1`, the AC50 is 12.6 µM [rising, partial curve].

Take `CN(C)c1ncc2nc(-c3ccc(Cl)cc3)c(=O)n(-c3ccccc3)c2n1`: the AC50 was 10 µM [rising, partial curve].

Regarding `Cc1cc(NC(=O)CSc2nc(-c3ccco3)cc(C(F)(F)F)n2)no1`, the AC50 was 3.16 µM [rising, full curve].

As for `CCC(C)NC(=O)C1CCN(C(=O)N(C)C)CC1` (configuration not stated), the AC50 is 25.1 µM [rising, single point].

Take `COc1cc(Cl)c(C)cc1NC(=O)COc1cc(C)nc(C(C)C)n1`: the AC50 was 3.16 µM [rising, single point].

As for `CCN(C(=O)CSc1nc2cc(C(=O)OC)ccc2c(=O)n1Cc1ccco1)c1cccc(C)c1`, the AC50 is 5.01 µM [rising, partial curve].

As for `CCOC(=O)C1C(c2cccc(Cl)c2Cl)NC(=O)NC1(O)C(F)(F)F` (configuration not stated), the AC50 is 0.398 µM [rising, partial curve].

For `C=C(C)COc1ccc(-c2n[nH]c(C)c2-c2ccccc2OC)c(O)c1`, the AC50 is 15.8 µM [falling, partial curve].

On to `Cc1c(C(=O)O)c(O)cc2c1C(=O)c1c(O)c([C@@H]3O[C@H](CO)[C@@H](O)[C@H](O)[C@@H]3O)c(O)c(O)c1C2=O`, for which the half-maximal activity concentration (AC50) is 31.6 µM [falling, single point].

On to `CCOc1ccc2nc(NCCNC(=O)CC)c(C#N)cc2c1`, for which the AC50 was 12.6 µM [falling, single point].

In the case of `COc1ccccc1N1CCN(CCCNC(=O)Nc2ccccc2)CC1`, the AC50 is 0.00316 µM [falling, full curve, poor fit].

For the molecule `O=C(Nc1n[nH]c(C2CCCCC2)n1)C1CCCCC1`, the AC50 is 25.1 µM [rising, single point].

As for `Cc1ccc(CCN2CC(C(=O)NCc3ccco3)CC2=O)cc1` (configuration not stated), the AC50 is 2 µM [falling, partial curve, poor fit].

`COc1cc(OC)c(NC(=O)CCc2nc(-c3cccs3)no2)cc1Cl`: the AC50 is 7.94 µM [rising, partial curve, poor fit].

Regarding `CCN(CC)C(=O)CSc1nc(O)cc(=O)n1CC`, the AC50 was 0.398 µM [rising, partial curve].

Turning to `Cc1ccc(S(=O)(=O)N2CC3CCC2C3)cc1` (configuration not stated), the AC50 is 2.51 µM [falling, partial curve, poor fit].

Turning to `COc1ccc(N2C(=O)CC(NC34CC5CC(CC(C5)C3)C4)C2=O)c(OC)c1` (configuration not stated), the AC50 is 0.0398 µM [falling, partial curve, poor fit].

On to `CC1(C)CC(=O)c2c(nn(-c3ccccc3)c2N)C1`, for which the AC50 is 25.1 µM [rising, single point].

As for `Cc1cc(O)ccc1Nc1nc(-c2sc(N)nc2C)cs1`, the AC50 was 2 µM [falling, full curve].

Turning to `Cc1ccc(S(=O)(=O)CCC(=O)OCC(=O)N2CC(=O)Nc3ccccc32)cc1`, the AC50 was 25.1 µM [rising, single point].

In the case of `CNC(=O)CSc1nnc(-c2cccc(S(=O)(=O)N3CCOCC3)c2)n1-c1ccc(F)cc1`, the AC50 is 2.51 µM [rising, single point].

Take `CC(=O)N(CCO)Cc1cc2cc(C)cc(C)c2[nH]c1=O`: the AC50 is 0.501 µM [falling, partial curve].

With `CCOC(=O)c1ccc(NC(=O)c2ccc3c(c2)OCO3)cc1`, the AC50 is 0.01 µM [falling, full curve, poor fit].

Regarding `CC(=O)CC(=O)Nc1ccc2ccccc2c1`, the AC50 was 0.501 µM [rising, partial curve].

`CCc1ccc(NC(=O)CSc2nnc(Cc3cccn3C)n2-c2ccc(F)cc2)cc1`: the AC50 was 12.6 µM [falling, partial curve].

Take `COc1cc(C(=O)n2nc(C)cc2C)cc(OC)c1OC`: the AC50 is 1 µM [falling, single point].

Take `Cn1cccc1Cc1nnc(SCC(=O)Nc2cccc(Cl)c2)n1-c1ccc(F)cc1`: the AC50 is 15.8 µM [falling, single point].

Take `CCCC(=O)Nc1nn(C)c2nc3c(C)cccc3cc12`: the AC50 is 2.51 µM [rising, full curve].

Consider `COc1ccc2[nH]cc(CCNc3nc(-c4cccc(C#N)c4)nc4ccccc34)c2c1`, for which the AC50 is 2.51 µM [rising, single point].

For orientation: AC50 means the concentration giving half of the maximal activity seen.
